Assay: general procedure: Fmoc solid-phase peptide synthesis; FMOC-PAL-PEG-PS resin; HBTU

Row | Substance | conjugation yield (conjugation step) | crude mass (whole synthesis) | crude yield (whole synthesis, scale of the general procedure 0.25 mmol)
1 | 5-carboxyfluorescein-Gly-Gly-dPhe-Leu-Arg-Arg-Val-Cys(5-(and 6)tetramethylrhodamine)-βAla-NH2 | 8% |  | 
2 | 5-carboxyfluorescein-Gly-Gly-dPhe-Leu-Arg-Arg-Val-Cys(H)-βAla-NH2 |  | 50 mg | 54%

From patent publication US6991916B2 (Pfizer Inc., priority 2000, dated 2006)
